Measurements as given in article PMC11473679.
These are yes or no findings as the source states them, for the method shown. Binding seen in cells or lysates may run through a third protein. Some results given as binding are weak or reduced against the parent protein; the word gives no strength. For some of these results: Tags and fused reporters may be left off the sequences shown. Values belong to the molecule of their own block, whether it stands above or below them.

Amino acid sequences for entries named in this document (tags omitted). Residues count along the entry.
UniProt Q8BMS1, residues 37-763: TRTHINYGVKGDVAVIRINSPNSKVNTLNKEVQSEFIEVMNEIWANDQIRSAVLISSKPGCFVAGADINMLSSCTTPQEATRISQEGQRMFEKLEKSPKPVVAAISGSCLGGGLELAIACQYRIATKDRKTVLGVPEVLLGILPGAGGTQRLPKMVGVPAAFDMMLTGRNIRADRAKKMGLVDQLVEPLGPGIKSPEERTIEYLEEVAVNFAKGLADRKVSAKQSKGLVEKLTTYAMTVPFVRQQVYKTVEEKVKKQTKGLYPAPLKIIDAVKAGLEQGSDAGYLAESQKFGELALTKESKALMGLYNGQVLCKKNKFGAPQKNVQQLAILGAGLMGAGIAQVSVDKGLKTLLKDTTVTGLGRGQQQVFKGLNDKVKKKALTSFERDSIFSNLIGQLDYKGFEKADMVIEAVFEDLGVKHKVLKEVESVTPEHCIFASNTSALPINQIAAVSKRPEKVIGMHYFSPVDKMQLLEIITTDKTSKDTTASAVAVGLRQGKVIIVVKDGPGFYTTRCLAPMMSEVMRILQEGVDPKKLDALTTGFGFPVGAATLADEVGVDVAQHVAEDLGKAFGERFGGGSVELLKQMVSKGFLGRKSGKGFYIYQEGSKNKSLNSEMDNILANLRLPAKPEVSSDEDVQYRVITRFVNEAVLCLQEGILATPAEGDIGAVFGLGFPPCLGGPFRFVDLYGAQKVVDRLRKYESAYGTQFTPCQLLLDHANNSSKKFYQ
UniProt P40939, residues 37-763: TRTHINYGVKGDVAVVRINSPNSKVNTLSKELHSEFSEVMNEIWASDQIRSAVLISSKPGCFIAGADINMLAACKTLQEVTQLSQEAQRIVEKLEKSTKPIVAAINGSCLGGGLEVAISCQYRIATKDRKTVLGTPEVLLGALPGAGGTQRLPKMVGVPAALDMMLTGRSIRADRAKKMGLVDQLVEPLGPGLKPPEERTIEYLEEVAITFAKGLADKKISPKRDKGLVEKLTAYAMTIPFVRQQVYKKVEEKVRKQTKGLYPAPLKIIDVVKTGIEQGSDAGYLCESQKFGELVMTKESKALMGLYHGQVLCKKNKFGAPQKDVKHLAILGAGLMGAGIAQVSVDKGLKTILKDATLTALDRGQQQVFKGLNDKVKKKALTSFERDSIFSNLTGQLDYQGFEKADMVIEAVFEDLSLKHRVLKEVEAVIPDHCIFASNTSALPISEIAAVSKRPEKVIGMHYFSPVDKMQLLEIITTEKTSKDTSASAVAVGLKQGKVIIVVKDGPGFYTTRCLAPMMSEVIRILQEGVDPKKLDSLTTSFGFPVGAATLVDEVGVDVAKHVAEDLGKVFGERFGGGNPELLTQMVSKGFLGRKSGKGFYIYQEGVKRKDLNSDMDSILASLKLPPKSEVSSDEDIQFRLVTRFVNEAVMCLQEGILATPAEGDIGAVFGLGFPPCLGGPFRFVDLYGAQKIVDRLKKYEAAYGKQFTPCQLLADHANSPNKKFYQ

How the values were obtained:
[1] = target: T1, Melusin (mouse, endogenous in wild-type heart) (mouse (endogenous in heart)) (UniProt Q9R000); assay: co-IP; Melusin immunoprecipitation from about 1 mg cardiac total extract of wild-type mice (Mel null as control); anti-Melusin antibody on CNBr-Sepharose beads, overnight at 4 °C; IP buffer 25 mM Tris-HCl pH 8, 1 mM MgCl2, 10% glycerol; immunoblot
T1 sequence: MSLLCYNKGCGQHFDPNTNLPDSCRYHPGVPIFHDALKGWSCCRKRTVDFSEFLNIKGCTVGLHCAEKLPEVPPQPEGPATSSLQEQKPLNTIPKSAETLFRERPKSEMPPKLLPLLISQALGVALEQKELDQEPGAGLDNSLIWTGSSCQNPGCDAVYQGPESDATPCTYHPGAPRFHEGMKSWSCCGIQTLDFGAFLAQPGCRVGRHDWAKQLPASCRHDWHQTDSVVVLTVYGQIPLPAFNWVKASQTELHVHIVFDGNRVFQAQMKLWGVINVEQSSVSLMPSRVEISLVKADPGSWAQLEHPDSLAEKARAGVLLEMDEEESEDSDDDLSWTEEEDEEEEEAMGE

[2] = target: T2, Myc-Melusin (pLVX lentivirus, in AC16 cells) (human) (UniProt Q9UKP3); assay: proximity ligation; Duolink In Situ Red kit; AC16 cells expressing Myc-Melusin (empty as control), fixed and permeabilised; mouse anti-Myc tag and rabbit anti-HADHA
T2 sequence: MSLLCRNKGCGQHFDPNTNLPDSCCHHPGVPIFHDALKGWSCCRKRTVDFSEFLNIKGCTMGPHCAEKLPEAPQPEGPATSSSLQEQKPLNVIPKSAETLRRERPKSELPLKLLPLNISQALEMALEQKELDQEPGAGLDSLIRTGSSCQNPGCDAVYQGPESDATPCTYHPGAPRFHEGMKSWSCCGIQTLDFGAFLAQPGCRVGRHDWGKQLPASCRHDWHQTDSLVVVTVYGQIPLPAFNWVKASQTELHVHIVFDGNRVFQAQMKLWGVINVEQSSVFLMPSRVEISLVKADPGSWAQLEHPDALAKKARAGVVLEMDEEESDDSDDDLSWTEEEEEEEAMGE

[3] = target: T3, Myc-Melusin (AAV6, in Mel null hiPSC-CMs) (UniProt Q9UKP3); assay: proximity ligation; Duolink In Situ Red kit; Mel null hiPSC-CMs infected with AAV6-MycMel (AAV6-empty as control), fixed and permeabilised; mouse anti-Myc tag and rabbit anti-HADHA
T3 sequence: T2 sequence

binding [1]: binds
Molecule: α subunit of the mitochondrial trifunctional protein (mouse) (from UniProt Q8BMS1 37-763)

binding [2]: binds
binding [3]: binds
Molecule: α subunit of the mitochondrial trifunctional protein (human) (from UniProt P40939 37-763)

binding [1]: binds
B1: β subunit of the mitochondrial trifunctional protein (mouse) (protein, UniProt Q99JY0 35-475)
chain: SAPAVQTKSKKTLAKPNMKNIVVVEGVRIPFLLSGTSYKDLMPHDLARAALSGLLHRTNIPKDVVDYIIFGTVIQEVKTSNVAREAALGAGFSDKTPAHTVTMACISSNQAMTTAVGLIASGQCDVVVAGGVELMSDVPIRHSRNMRKMMLDLNKAKTLGQRLSLLSKFRLNFLSPELPAVAEFSTNETMGHSADRLAAAFAVSRMEQDEYALRSHSLAKKAQDEGHLSDIVPFKVPGKDTVTKDNGIRPSSLEQMAKLKPAFIKPYGTVTAANSSFLTDGASAMLIMSEDRALAMGYKPKAYLRDFIYVSQDPKDQLLLGPTYATPKVLEKAGLTMNDIDAFEFHEAFSGQILANFKAMDSDWFAQNYMGRKTKVGSPPLEKFNIWGGSLSLGHPFGATGCRLVMAAANRLRKDGGQYALVAACAAGGQGHAMIVEAYPK
